This passage reports binding results from publication PMC6500973.

Chains of the proteins cited; added tags and fusions are not shown. Lines headed by an entry give the natural chain unless they say otherwise; changes in a name come on top.
UniProt Q01844: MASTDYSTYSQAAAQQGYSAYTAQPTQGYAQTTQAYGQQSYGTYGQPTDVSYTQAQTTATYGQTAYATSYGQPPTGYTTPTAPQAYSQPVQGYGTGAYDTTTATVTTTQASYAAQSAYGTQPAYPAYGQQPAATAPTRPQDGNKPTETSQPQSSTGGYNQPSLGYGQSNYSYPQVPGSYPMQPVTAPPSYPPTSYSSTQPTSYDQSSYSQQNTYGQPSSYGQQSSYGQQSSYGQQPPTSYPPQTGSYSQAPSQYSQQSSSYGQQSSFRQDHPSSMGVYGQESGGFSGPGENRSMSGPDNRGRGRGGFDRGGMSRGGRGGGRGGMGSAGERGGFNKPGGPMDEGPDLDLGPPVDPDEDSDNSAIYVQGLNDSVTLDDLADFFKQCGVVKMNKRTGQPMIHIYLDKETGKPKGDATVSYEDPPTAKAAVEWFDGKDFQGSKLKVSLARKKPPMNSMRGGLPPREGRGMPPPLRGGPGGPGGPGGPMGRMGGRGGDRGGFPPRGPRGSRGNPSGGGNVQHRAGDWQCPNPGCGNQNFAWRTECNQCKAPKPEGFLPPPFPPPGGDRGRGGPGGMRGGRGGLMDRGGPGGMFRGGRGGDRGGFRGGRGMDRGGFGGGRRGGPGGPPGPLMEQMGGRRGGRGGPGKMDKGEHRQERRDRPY
UniProt P35637: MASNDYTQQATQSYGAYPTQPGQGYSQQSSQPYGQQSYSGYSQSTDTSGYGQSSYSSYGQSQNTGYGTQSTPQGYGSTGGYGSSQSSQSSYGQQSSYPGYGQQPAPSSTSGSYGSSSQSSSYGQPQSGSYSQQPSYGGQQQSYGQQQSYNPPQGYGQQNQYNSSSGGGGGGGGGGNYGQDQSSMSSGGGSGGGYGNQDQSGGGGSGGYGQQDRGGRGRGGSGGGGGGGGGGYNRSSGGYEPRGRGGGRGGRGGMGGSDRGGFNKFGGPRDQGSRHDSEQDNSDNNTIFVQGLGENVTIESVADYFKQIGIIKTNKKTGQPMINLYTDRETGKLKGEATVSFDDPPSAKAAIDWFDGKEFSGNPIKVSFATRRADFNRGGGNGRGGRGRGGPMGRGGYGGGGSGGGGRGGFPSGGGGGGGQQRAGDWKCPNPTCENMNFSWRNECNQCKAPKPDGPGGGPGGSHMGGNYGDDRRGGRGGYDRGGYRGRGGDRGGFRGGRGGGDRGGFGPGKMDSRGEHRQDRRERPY
UniProt P51532: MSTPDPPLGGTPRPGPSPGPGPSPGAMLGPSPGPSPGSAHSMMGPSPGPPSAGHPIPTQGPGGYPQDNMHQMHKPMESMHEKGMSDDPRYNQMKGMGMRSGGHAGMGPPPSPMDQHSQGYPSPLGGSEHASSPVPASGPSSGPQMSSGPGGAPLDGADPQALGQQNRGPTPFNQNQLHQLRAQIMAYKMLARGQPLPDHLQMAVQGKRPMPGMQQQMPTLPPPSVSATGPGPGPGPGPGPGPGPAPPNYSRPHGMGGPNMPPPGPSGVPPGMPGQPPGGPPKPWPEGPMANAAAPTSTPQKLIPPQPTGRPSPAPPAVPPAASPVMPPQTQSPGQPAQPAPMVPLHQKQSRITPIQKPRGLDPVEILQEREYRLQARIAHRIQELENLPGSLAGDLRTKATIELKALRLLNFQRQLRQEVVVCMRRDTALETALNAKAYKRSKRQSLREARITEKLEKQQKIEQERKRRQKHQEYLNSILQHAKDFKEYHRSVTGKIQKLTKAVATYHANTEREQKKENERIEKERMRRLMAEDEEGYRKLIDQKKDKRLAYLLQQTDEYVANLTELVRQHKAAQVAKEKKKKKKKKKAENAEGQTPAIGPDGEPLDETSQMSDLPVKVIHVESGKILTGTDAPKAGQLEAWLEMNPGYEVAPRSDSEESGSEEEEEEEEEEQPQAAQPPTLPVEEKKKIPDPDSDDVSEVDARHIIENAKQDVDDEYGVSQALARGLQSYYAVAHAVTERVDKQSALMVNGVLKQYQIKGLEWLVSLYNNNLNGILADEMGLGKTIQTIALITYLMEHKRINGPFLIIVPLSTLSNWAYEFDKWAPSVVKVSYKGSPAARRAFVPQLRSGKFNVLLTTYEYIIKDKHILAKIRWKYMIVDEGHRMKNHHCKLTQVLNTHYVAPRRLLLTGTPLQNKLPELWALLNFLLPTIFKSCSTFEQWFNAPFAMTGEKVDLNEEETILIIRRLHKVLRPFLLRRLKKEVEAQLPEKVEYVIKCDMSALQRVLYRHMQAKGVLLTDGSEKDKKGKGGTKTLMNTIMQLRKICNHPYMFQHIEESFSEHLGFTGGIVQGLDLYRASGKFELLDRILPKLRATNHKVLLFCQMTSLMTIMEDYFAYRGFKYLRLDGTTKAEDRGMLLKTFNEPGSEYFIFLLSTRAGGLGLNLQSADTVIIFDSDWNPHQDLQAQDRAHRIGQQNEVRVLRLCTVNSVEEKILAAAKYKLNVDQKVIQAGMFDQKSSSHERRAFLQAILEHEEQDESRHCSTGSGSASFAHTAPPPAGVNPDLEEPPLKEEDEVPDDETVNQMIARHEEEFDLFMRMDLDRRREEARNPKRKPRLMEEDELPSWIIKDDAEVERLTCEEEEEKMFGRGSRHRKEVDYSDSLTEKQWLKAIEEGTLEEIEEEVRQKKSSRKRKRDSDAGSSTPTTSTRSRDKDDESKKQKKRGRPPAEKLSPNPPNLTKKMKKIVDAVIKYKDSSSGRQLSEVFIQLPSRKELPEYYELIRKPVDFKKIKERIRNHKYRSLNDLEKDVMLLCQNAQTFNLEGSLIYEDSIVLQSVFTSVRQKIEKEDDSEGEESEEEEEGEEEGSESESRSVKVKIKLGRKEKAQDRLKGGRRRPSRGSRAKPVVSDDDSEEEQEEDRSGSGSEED
UniProt Q15532: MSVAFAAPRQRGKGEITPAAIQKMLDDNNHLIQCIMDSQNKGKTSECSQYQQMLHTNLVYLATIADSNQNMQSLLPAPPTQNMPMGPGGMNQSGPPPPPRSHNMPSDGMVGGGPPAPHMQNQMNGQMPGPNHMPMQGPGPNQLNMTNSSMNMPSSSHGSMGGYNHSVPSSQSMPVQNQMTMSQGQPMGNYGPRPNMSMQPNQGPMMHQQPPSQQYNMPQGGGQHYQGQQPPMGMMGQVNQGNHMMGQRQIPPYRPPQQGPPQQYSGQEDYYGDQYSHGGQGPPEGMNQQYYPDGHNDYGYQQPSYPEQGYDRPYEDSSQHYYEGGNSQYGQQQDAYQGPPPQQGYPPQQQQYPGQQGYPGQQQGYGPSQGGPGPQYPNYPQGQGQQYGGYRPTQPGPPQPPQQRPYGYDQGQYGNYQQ
UniProt Q96GM5: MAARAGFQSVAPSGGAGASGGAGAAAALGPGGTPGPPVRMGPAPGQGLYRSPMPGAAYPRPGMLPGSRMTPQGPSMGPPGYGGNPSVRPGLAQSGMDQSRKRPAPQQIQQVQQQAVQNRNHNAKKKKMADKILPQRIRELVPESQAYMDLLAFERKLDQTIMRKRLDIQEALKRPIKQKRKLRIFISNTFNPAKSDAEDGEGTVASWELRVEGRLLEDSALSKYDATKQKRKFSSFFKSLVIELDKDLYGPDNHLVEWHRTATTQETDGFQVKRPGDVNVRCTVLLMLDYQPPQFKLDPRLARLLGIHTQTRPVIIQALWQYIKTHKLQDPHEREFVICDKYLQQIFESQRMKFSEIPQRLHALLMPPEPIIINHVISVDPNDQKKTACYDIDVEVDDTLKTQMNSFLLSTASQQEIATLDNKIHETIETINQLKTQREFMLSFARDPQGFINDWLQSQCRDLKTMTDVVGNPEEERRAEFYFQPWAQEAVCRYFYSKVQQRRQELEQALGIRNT
UniProt Q12824: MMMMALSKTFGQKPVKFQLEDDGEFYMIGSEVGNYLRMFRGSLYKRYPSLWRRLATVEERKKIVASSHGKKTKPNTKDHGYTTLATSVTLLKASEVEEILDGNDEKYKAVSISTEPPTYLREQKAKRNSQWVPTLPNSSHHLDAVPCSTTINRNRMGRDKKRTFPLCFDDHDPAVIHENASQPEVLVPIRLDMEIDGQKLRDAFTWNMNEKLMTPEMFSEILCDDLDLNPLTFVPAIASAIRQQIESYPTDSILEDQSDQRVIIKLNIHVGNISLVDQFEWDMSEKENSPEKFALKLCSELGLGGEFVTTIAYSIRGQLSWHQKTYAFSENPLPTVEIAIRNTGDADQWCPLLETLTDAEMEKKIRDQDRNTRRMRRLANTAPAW
UniProt Q8TAQ2: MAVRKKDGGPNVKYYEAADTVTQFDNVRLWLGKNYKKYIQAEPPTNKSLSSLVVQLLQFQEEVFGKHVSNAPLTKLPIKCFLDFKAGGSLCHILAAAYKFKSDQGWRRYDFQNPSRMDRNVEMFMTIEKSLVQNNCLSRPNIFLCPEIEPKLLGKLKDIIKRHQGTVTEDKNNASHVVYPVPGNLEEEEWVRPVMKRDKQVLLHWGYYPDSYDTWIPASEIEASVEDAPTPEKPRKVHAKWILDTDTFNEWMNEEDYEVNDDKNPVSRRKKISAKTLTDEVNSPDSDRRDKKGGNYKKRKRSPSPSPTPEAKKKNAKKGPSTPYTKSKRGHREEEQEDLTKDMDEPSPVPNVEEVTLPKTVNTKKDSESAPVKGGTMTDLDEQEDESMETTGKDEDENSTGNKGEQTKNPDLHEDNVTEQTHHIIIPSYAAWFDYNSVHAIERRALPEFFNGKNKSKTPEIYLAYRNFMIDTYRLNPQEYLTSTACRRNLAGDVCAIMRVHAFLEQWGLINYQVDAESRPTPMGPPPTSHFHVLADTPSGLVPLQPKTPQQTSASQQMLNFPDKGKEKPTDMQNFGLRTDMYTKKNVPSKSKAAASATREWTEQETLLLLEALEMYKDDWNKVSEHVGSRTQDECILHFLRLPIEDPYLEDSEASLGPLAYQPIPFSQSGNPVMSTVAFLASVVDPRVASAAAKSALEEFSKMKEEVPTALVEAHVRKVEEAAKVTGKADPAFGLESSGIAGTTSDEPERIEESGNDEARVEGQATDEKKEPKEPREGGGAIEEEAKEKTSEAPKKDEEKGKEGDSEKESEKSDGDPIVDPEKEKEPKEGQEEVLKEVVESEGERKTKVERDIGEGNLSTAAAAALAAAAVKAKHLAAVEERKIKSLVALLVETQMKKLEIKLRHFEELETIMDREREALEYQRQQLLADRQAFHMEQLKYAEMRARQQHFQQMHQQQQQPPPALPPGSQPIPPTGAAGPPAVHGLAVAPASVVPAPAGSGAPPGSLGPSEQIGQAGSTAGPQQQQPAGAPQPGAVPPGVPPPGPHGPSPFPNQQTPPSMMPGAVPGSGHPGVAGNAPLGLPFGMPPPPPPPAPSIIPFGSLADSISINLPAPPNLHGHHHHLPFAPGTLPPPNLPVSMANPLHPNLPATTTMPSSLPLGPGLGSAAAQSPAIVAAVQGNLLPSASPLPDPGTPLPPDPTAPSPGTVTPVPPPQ
UniProt Q92922: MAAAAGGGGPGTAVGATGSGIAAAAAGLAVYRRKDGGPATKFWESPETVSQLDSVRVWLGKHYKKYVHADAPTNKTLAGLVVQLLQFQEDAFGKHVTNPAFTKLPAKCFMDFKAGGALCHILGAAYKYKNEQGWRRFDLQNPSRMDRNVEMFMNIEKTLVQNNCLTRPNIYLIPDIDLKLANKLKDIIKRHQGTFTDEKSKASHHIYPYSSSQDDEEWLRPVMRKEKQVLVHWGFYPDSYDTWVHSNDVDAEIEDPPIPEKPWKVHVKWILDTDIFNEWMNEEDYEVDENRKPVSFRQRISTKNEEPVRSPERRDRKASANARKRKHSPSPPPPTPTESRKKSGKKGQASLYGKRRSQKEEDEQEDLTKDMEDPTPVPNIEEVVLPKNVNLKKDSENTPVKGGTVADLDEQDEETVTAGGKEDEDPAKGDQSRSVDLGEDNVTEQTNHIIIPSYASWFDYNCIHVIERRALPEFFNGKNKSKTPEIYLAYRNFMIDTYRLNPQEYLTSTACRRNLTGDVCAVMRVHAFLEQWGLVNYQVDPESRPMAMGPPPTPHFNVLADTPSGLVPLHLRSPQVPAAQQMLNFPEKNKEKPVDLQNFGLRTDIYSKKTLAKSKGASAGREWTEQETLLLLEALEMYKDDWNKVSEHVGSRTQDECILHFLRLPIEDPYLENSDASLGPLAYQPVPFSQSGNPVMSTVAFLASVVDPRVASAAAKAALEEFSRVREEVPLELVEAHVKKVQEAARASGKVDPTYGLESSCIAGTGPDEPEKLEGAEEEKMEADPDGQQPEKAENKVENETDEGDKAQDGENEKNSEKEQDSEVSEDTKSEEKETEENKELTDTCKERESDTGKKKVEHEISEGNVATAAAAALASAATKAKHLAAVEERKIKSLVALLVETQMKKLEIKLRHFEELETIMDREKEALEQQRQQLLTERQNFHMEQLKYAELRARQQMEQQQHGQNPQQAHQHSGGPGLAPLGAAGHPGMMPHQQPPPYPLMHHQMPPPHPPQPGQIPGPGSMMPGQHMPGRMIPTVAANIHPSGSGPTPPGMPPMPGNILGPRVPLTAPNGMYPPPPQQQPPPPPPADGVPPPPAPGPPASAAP

No constants are given. Whether binding was seen depends on the method and setting. Binding seen in cells or lysates may run through a third protein. Binding can be weak; no strength is given.

Assay [1] addresses GST‐tagged EWSR1‐NTD (human) (UniProt Q01844). Description: pull-down; GST-tagged FET-NTD or FUS-NTD deletion mutant baits on Glutathione-Sepharose 4B incubated with Raji cell extract 2-4 h at 4°C; washed four times in 20 mM Tris pH 7.5, 0.5% NP-40, 100 mM NaCl, 2 mM MgCl2; immunoblot; only the target purified. For orientation: In western blotting, separated proteins are transferred to a membrane and probed.

The target of assay [2] is GST‐tagged FUS‐NTD (human) (UniProt P35637). The assay is described as above.
Assay [3] shares this target. Description: pull-down; FUS-NTD-GST on Glutathione-Sepharose 4B with Raji cell extract treated with 20 U/ml RNase ONE or 10 U/ml RQ1 DNase in modified extraction buffer (5 mM MgCl2, 5 mM MnCl2, 10 mM CaCl2); immunoblot; only the target purified.
For assay [4] the target is unchanged. Put plainly: pull-down; FUS-NTD-GST on Glutathione-Sepharose 4B with Raji cell extract; stringency washes, four times with extraction buffer containing 100, 150, 250, 500 or 1,000 mM NaCl, then one wash with 100 mM NaCl; immunoblot of what remained on the bait; only the target purified.

On to BRG1 (from UniProt P51532 1-1647), for which the binding result in assay [1], in assay [2] and in assay [3] was “binds” in each case.

For SS18 (from UniProt Q15532 1-418), the binding entry in assay [4] is reported as “binds”.

On to BAF60A (from UniProt Q96GM5 1-515), for which the binding result in assay [1], in assay [2] and in assay [4] was “binds” in each case.

Regarding BAF47 (from UniProt Q12824 1-385), the binding result in assay [4] was “binds”.

As to BAF170 (from UniProt Q8TAQ2 1-1214), the binding result in assay [4] is listed as “binds”.

Consider EWSR1 (from UniProt Q01844 1-656), for which the binding result in assay [4] was “binds”.

As to BAF155 (from UniProt Q92922 1-1105), the binding entry in assay [4] is recorded as “binds”.
